{"source": "patent US20020162794A1", "about": "“Anaerobic digestion” (priority 2001, published 2002)", "system": "mixed culture from a publicly owned anaerobic digester (domestic sewage sludge)", "experiment": "pH of laboratory batch anaerobic digester reactors", "conditions": "for pH: 7/1/99 run (Tables 2, 10); for pH, Average: 7/1/99 run", "note": "Several values for one entry are separate records, joined by “and”; a condition that tells them apart may be missing. Equal entries are not always repeated.", "data": [{"compound": "O=C[O-].[Na+]", "note": "[sodium formate]", "values": [{"measurement": "pH", "setting": "5000 ppm, 25 days", "result": 3.99}, {"measurement": "pH", "setting": "5000 ppm, 55 days", "result": 4.06}, {"measurement": "pH", "setting": "10000 ppm, 0 Day (with formate), listed as Format", "result": "6.42 and 6.29 and 6.5"}, {"measurement": "pH", "setting": "10000 ppm, 0 Day (with formate), listed as Formate", "result": "6.50 and 6.42 and 6.29"}, {"measurement": "pH", "setting": "10000 ppm, 5 Day, listed as Format", "result": "5.25 and 5.1 and 5.19"}, {"measurement": "pH", "setting": "10000 ppm, 5 Day, listed as Formate", "result": "5.19 and 5.25 and 5.1"}, {"measurement": "pH", "setting": "10000 ppm, 2 days, listed as Format", "result": "5.64 and 5.49 and 5.51"}, {"measurement": "pH", "setting": "10000 ppm, 2 days, listed as Formate", "result": "5.51 and 5.64 and 5.49"}, {"measurement": "pH", "setting": "10000 ppm, 3 days, listed as Format", "result": "5.28 and 5.1 and 5.18"}, {"measurement": "pH", "setting": "10000 ppm, 3 days, listed as Formate", "result": "5.18 and 5.28 and 5.1"}, {"measurement": "pH", "setting": "10000 ppm, 7 days, listed as Format", "result": "5.01 and 4.97 and 4.78"}, {"measurement": "pH", "setting": "10000 ppm, 7 days, listed as Formate", "result": "4.78 and 5.01 and 4.97"}, {"measurement": "pH", "setting": "10000 ppm, 9 days, listed as Format", "result": "4.67 and 4.69 and 4.48"}, {"measurement": "pH", "setting": "10000 ppm, 9 days, listed as Formate", "result": "4.48 and 4.67 and 4.69"}, {"measurement": "pH", "setting": "10000 ppm, 17 days, listed as Format", "result": "4.21 and 4.55"}, {"measurement": "pH", "setting": "10000 ppm, 17 days, listed as Formate", "result": "4.21 and 4.55"}, {"measurement": "pH", "setting": "10000 ppm, 25 days, listed as Format", "result": "4.17 and 4.19 and 4.13"}, {"measurement": "pH", "setting": "10000 ppm, 25 days, listed as Formate", "result": "4.13 and 4.17 and 4.19"}, {"measurement": "pH", "setting": "10000 ppm, 55 days, listed as Format", "result": "4.25 and 4.21"}, {"measurement": "pH", "setting": "10000 ppm, 55 days, listed as Formate", "result": "4.21 and 4.25"}, {"measurement": "pH", "setting": "100000 ppm, 0 Day (with formate), listed as Format", "result": "7.54 and 7.75"}, {"measurement": "pH", "setting": "100000 ppm, 0 Day (with formate), listed as Formate", "result": "7.54 and 7.75"}, {"measurement": "pH", "setting": "100000 ppm, 5 Day, listed as Format", "result": "7.34 and 7.5"}, {"measurement": "pH", "setting": "100000 ppm, 5 Day, listed as Formate", "result": "7.34 and 7.5"}, {"measurement": "pH", "setting": "100000 ppm, 2 days, listed as Format", "result": "7.34 and 7.54"}, {"measurement": "pH", "setting": "100000 ppm, 2 days, listed as Formate", "result": "7.34 and 7.54"}, {"measurement": "pH", "setting": "100000 ppm, 3 days, listed as Format", "result": "7.33 and 7.46"}, {"measurement": "pH", "setting": "100000 ppm, 3 days, listed as Formate", "result": "7.33 and 7.46"}, {"measurement": "pH", "setting": "100000 ppm, 7 days, listed as Format", "result": "7.25 and 7.42"}, {"measurement": "pH", "setting": "100000 ppm, 7 days, listed as Formate", "result": "7.25 and 7.42"}, {"measurement": "pH", "setting": "100000 ppm, 9 days, listed as Format", "result": "7.27 and 7.42"}, {"measurement": "pH", "setting": "100000 ppm, 9 days, listed as Formate", "result": "7.27 and 7.42"}, {"measurement": "pH", "setting": "100000 ppm, 17 days, listed as Format", "result": "6.3 and 6.87"}, {"measurement": "pH", "setting": "100000 ppm, 17 days, listed as Formate", "result": "6.3 and 6.87"}, {"measurement": "pH", "setting": "100000 ppm, 25 days, listed as Format", "result": "6.01 and 6.72"}, {"measurement": "pH", "setting": "100000 ppm, 25 days, listed as Formate", "result": "6.01 and 6.72"}, {"measurement": "pH", "setting": "100000 ppm, 55 days, listed as Format", "result": "5.97 and 6.73"}, {"measurement": "pH", "setting": "100000 ppm, 55 days, listed as Formate", "result": "5.97 and 6.73"}, {"measurement": "pH, Average", "setting": "1000 ppm, average of 3 reactors, 0 Day", "result": 5.243}, {"measurement": "pH, Average", "setting": "1000 ppm, average of 3 reactors, 5 Day", "result": 4.477}, {"measurement": "pH, Average", "setting": "1000 ppm, average of 3 reactors, 2 days", "result": 4.77}, {"measurement": "pH, Average", "setting": "1000 ppm, average of 3 reactors, 3 days", "result": 4.583}, {"measurement": "pH, Average", "setting": "1000 ppm, average of 3 reactors, 7 days", "result": 4.243}, {"measurement": "pH, Average", "setting": "1000 ppm, average of 3 reactors, 9 days", "result": 4.117}, {"measurement": "pH, Average", "setting": "1000 ppm, average of 3 reactors, 17 days", "result": 3.807}, {"measurement": "pH, Average", "setting": "1000 ppm, average of 3 reactors, 25 days", "result": 3.607}, {"measurement": "pH, Average", "setting": "1000 ppm, average of 3 reactors, 55 days", "result": 3.653}, {"measurement": "pH, Average", "setting": "10000 ppm, average of 3 reactors, 0 Day", "result": 6.403}, {"measurement": "pH, Average", "setting": "10000 ppm, average of 3 reactors, 5 Day", "result": 5.18}, {"measurement": "pH, Average", "setting": "10000 ppm, average of 3 reactors, 2 days", "result": 5.55}, {"measurement": "pH, Average", "setting": "10000 ppm, average of 3 reactors, 3 days", "result": 5.187}, {"measurement": "pH, Average", "setting": "10000 ppm, average of 3 reactors, 7 days", "result": 4.92}, {"measurement": "pH, Average", "setting": "10000 ppm, average of 3 reactors, 9 days", "result": 4.613}, {"measurement": "pH, Average", "setting": "10000 ppm, average of 3 reactors, 17 days", "result": 4.323}, {"measurement": "pH, Average", "setting": "10000 ppm, average of 3 reactors, 25 days", "result": 4.163}, {"measurement": "pH, Average", "setting": "10000 ppm, average of 3 reactors, 55 days", "result": 4.237}, {"measurement": "pH, Average", "setting": "100000 ppm, average of 2 reactors, 0 Day", "result": 7.645}, {"measurement": "pH, Average", "setting": "100000 ppm, average of 2 reactors, 5 Day", "result": 7.42}, {"measurement": "pH, Average", "setting": "100000 ppm, average of 2 reactors, 2 days", "result": 7.44}, {"measurement": "pH, Average", "setting": "100000 ppm, average of 2 reactors, 3 days", "result": 7.395}, {"measurement": "pH, Average", "setting": "100000 ppm, average of 2 reactors, 7 days", "result": 7.335}, {"measurement": "pH, Average", "setting": "100000 ppm, average of 2 reactors, 9 days", "result": 7.345}, {"measurement": "pH, Average", "setting": "100000 ppm, average of 2 reactors, 17 days", "result": 6.585}, {"measurement": "pH, Average", "setting": "100000 ppm, average of 2 reactors, 25 days", "result": 6.365}, {"measurement": "pH, Average", "setting": "100000 ppm, average of 2 reactors, 55 days", "result": 6.35}, {"measurement": "pH of the mixed culture maintained at or near", "setting": "spiked concentration levels exceeding 1000 ppm by mass", "result": "6.8-7.4"}]}]}
